{"source": "PubChem BioAssay AID1224829 (NIAID, 2016)", "assay": "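Secondary check of hits that alter LPS-induced p65 translocation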 (follow-up of hits)", "cells": "mouse RAW264.7 G9 macrophage reporter cells", "reagents": "single siRNA against mouse genes, 100 nM", "duration": "2 days of siRNA knock-down, then 40 min of LPS before fixing", "conditions": "LPS (Salmonella minnesota R595) at 10 ng/ml", "measured": "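Imaging of GFP-p65 after 40 min of LPS; nuclear over perinuclear ring intensity ratio, scaled to plate median and non-targeting control wells, given as z-score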", "reading the numbers": "p65 translocation z-score: higher = more nuclear NF-kappaB p65 after LPS", "active means": "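Active means the replicate-mean z-score lies beyond plus or minus 2, in either direction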", "meaning of the calls": "active = changed p65 translocation (either direction); inactive = no clear change", "note": "The whole screen tested about 3,800 reagents; shown is a part drawn at random. 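Calls cover raised and lowered translocation; gene median uses one vendor's three siRNAs; qiagen siRNAs acted more weakly than ambion siRNAs.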 Unmarked entries are inactive. The numbers tell different reagents against one gene apart. Further read-outs or replicates are left out here. Reagent sequences are not shown."}
{"Target gene": "Zmat4 (zinc finger, matrin type 4)", "reagent": 1, "siRNA vendor or control pool": "ambion single siRNA", "p65 translocation z-score, replicate mean": "-2.17 (active)"}
{"Target gene": "Zmat4 (zinc finger, matrin type 4)", "reagent": 2, "siRNA vendor or control pool": "ambion single siRNA", "p65 translocation z-score, replicate mean": -1.77}
{"Target gene": "Zmat4 (zinc finger, matrin type 4)", "reagent": 3, "siRNA vendor or control pool": "ambion single siRNA", "p65 translocation z-score, replicate mean": "-4.56 (active)"}
{"Target gene": "Zmat4 (zinc finger, matrin type 4)", "reagent": 4, "siRNA vendor or control pool": "qiagen single siRNA", "p65 translocation z-score, replicate mean": "3.38 (active)"}
{"Target gene": "Zmat4 (zinc finger, matrin type 4)", "reagent": 5, "siRNA vendor or control pool": "qiagen single siRNA", "p65 translocation z-score, replicate mean": "2.82 (active)"}
{"Target gene": "Zmat4 (zinc finger, matrin type 4)", "reagent": 6, "siRNA vendor or control pool": "qiagen single siRNA", "p65 translocation z-score, replicate mean": 0.163}
{"Target gene": "Fat4 (FAT atypical cadherin 4)", "reagent": 1, "siRNA vendor or control pool": "ambion single siRNA", "p65 translocation z-score, replicate mean": 0.214}
{"Target gene": "Fat4 (FAT atypical cadherin 4)", "reagent": 2, "siRNA vendor or control pool": "ambion single siRNA", "p65 translocation z-score, replicate mean": "-2.68 (active)"}
{"Target gene": "Fat4 (FAT atypical cadherin 4)", "reagent": 3, "siRNA vendor or control pool": "ambion single siRNA", "p65 translocation z-score, replicate mean": "-5.01 (active)"}
{"Target gene": "Fat4 (FAT atypical cadherin 4)", "reagent": 4, "siRNA vendor or control pool": "qiagen single siRNA", "p65 translocation z-score, replicate mean": 0.952}
{"Target gene": "Fat4 (FAT atypical cadherin 4)", "reagent": 5, "siRNA vendor or control pool": "qiagen single siRNA", "p65 translocation z-score, replicate mean": 1.61}
{"Target gene": "Fat4 (FAT atypical cadherin 4)", "reagent": 6, "siRNA vendor or control pool": "qiagen single siRNA", "p65 translocation z-score, replicate mean": 0.16}
{"Target gene": "Ap1g2 (adaptor protein complex AP-1, gamma 2 subunit)", "reagent": 1, "siRNA vendor or control pool": "ambion single siRNA", "p65 translocation z-score, replicate mean": -1.83}
{"Target gene": "Ap1g2 (adaptor protein complex AP-1, gamma 2 subunit)", "reagent": 2, "siRNA vendor or control pool": "ambion single siRNA", "p65 translocation z-score, replicate mean": "-3.22 (active)"}
{"Target gene": "Ap1g2 (adaptor protein complex AP-1, gamma 2 subunit)", "reagent": 3, "siRNA vendor or control pool": "ambion single siRNA", "p65 translocation z-score, replicate mean": "-4.61 (active)"}
{"Target gene": "Ap1g2 (adaptor protein complex AP-1, gamma 2 subunit)", "reagent": 4, "siRNA vendor or control pool": "qiagen single siRNA", "p65 translocation z-score, replicate mean": 0.636}
{"Target gene": "Ap1g2 (adaptor protein complex AP-1, gamma 2 subunit)", "reagent": 5, "siRNA vendor or control pool": "qiagen single siRNA", "p65 translocation z-score, replicate mean": "-2.88 (active)"}
{"Target gene": "Ap1g2 (adaptor protein complex AP-1, gamma 2 subunit)", "reagent": 6, "siRNA vendor or control pool": "qiagen single siRNA", "p65 translocation z-score, replicate mean": -1.95}
{"Target gene": "Nhlh1 (nescient helix loop helix 1)", "reagent": 1, "siRNA vendor or control pool": "ambion single siRNA", "p65 translocation z-score, replicate mean": 0.193}
{"Target gene": "Nhlh1 (nescient helix loop helix 1)", "reagent": 2, "siRNA vendor or control pool": "ambion single siRNA", "p65 translocation z-score, replicate mean": -0.347}
{"Target gene": "Nhlh1 (nescient helix loop helix 1)", "reagent": 3, "siRNA vendor or control pool": "ambion single siRNA", "p65 translocation z-score, replicate mean": "-2.5 (active)"}
{"Target gene": "Nhlh1 (nescient helix loop helix 1)", "reagent": 4, "siRNA vendor or control pool": "qiagen single siRNA", "p65 translocation z-score, replicate mean": "2.98 (active)"}
{"Target gene": "Nhlh1 (nescient helix loop helix 1)", "reagent": 5, "siRNA vendor or control pool": "qiagen single siRNA", "p65 translocation z-score, replicate mean": 0.958}
{"Target gene": "Nhlh1 (nescient helix loop helix 1)", "reagent": 6, "siRNA vendor or control pool": "qiagen single siRNA", "p65 translocation z-score, replicate mean": 0.718}

Records above whose gene name begins with N or n:
{"Target gene": "Nhlh1 (nescient helix loop helix 1)", "reagent": 1, "siRNA vendor or control pool": "ambion single siRNA", "p65 translocation z-score, replicate mean": 0.193}
{"Target gene": "Nhlh1 (nescient helix loop helix 1)", "reagent": 2, "siRNA vendor or control pool": "ambion single siRNA", "p65 translocation z-score, replicate mean": -0.347}
{"Target gene": "Nhlh1 (nescient helix loop helix 1)", "reagent": 3, "siRNA vendor or control pool": "ambion single siRNA", "p65 translocation z-score, replicate mean": "-2.5 (active)"}
{"Target gene": "Nhlh1 (nescient helix loop helix 1)", "reagent": 4, "siRNA vendor or control pool": "qiagen single siRNA", "p65 translocation z-score, replicate mean": "2.98 (active)"}
{"Target gene": "Nhlh1 (nescient helix loop helix 1)", "reagent": 5, "siRNA vendor or control pool": "qiagen single siRNA", "p65 translocation z-score, replicate mean": 0.958}
{"Target gene": "Nhlh1 (nescient helix loop helix 1)", "reagent": 6, "siRNA vendor or control pool": "qiagen single siRNA", "p65 translocation z-score, replicate mean": 0.718}
